In PubChem BioAssay AID2685 (National Center for Advancing Translational Sciences (NCATS), 2010) one finds cell number change and AC50 data, which are given here for 60 compounds.

Each structure is given as a SMILES string. This is one part of the list. Shown are side measurements of this screen, not its main read-out; they come without a call. The list favours compounds with an active or inconclusive main result. The note in brackets gives the kind of curve behind each potency; many fits are weak.

The assay is described as follows: qHTS Assay for Lipid Storage Modulators in Drosophila S3 Cells.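 On cell number change: cells counted by Cell Tracker Red CMTPX staining in the red channel.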 Particulars: BODIPY lipid droplet fluorescence, 18-24 h; for cell number change: measured here: cell count max response, cells fed with added oleic acid. The essentials:
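Drosophila S3 cells loaded with oleic acid (400 uM, as added) and compounds at several concentrations; lipid droplets imaged by 488-nm laser-scanning cytometry, 500–530 nm intensity and object ratio to cell channel. Percent activity normalized to 20 uM Triacsin C.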
On the technique in general: qHTS replaces the single test concentration by a dilution series.

The mark [1] stands for this setting: measured here: cell number channel AC50, cells fed with added oleic acid.
[2] abbreviates: measured here: lipid fluorescence (Fed channel) AC50, cells fed with added oleic acid.

Take `CCCCc1nc2ccccc2c(=O)n1-c1ccc(O)cc1`: the cell number change is -35%. Moreover, the half-maximal activity concentration (AC50) under setting [1] was 18.4 µM [falling, single point]. Besides, the concentration at half-maximal activity (AC50) under setting [2] was 29.1 µM [falling, single point].
For the compound `CN1C(=O)C(=Cc2ccccc2OS(=O)(=O)c2ccccc2)C(=O)N(C)C1=O`, the cell number change is -11.6%.
For `Cc1cccc(CCNCc2cc3ccc(C)cc3[nH]c2=O)c1`, the cell number change is -33.3%. For the same compound, the half-maximal activity concentration (AC50) under setting [1] is 16.4 µM [falling, single point].
With `O=C1NC(=O)C(=Cc2csc3ccccc23)C(=O)N1`, the cell number change was -8.15%. Under setting [2], the AC50 was 3.26 µM [falling, single point].
Consider `CCOc1cccc(N2C(=O)/C(=C/c3ccco3)C(=O)NC2=S)c1`, for which the cell number change was -11.7%. Also, the half-maximal activity concentration (AC50) under setting [2] is 2.91 µM [rising, partial curve].
On to `N[C@@H](Cc1ccc(N(CCCl)CCCl)cc1)C(=O)O`, for which the cell number change is 38.3%. For the same compound, under setting [1], the AC50 was 10.3 µM [rising, partial curve, poor fit]. The concentration at half-maximal activity (AC50) under setting [2] was 11.6 µM [rising, partial curve, poor fit].
On to `CC(C)=CCOc1c2occc2cc2ccc(=O)oc12`, for which the cell number change is -0.107%. Besides, under setting [1], the AC50 was 0.184 µM [rising, full curve]. Also, the concentration at half-maximal activity (AC50) under setting [2] is 0.517 µM [rising, full curve].
For `Cc1[nH]c2ccccc2c1CCNCc1ccco1`, the cell number change was -8.06%.
For the compound `CCOc1cc(C=C2C(=O)NC(=O)NC2=O)ccc1OS(=O)(=O)c1ccccc1`, the cell number change came out at 68.3%. The half-maximal activity concentration (AC50) under setting [2] was 6.51 µM [falling, single point].
On to `CCn1cc(C(=O)N2CCC3(CC2)OCCO3)c(=O)c2cc(S(=O)(=O)N3CCCC3)ccc21`, for which the AC50 under setting [1] is 4.61 µM [falling, single point].
For the compound `CCCCn1c(NC(=O)c2ccco2)c(C(=O)OCC)c2nc3ccccc3nc21`, the cell number change is -5.46%. In addition, the half-maximal activity concentration (AC50) under setting [2] is 2.31 µM [rising, partial curve].
As for `COc1cc(C(CN)CC(=O)O)ccc1O` (stereo not drawn), the cell number change was -1.98%.
In the case of `OC1CCCCC1N1CCC(c2ccccc2)CC1` (stereo not drawn), the AC50 is, setting by setting: under setting [1], 0.461 µM [rising, single point]; under setting [2], 0.231 µM [rising, full curve].
With `COc1ccc(C(O)c2cc(OC)ccc2OP(=O)(N(C)C)N(C)C)cc1` (stereo not drawn), the cell number change stood at 40%. For the same compound, the concentration at half-maximal activity (AC50) under setting [1] is 29.1 µM [rising, single point].
As for `COC(=O)C1=C(c2ccc(OC)c(OC)c2)C[C@@H]2CC[C@H]1N2C(=O)NCCOc1ccc(OC)cc1`, the cell number change was -3.73%.
On to `CCC(=O)CC(c1ccccc1)c1c(O)c2ccccc2sc1=O` (stereo not drawn), for which the cell number change was -5.9%. In addition, the concentration at half-maximal activity (AC50) under setting [2] was 0.231 µM [falling, full curve].
In the case of `CCC1(C)CC(CCNCc2ccc(N(C)C)cc2)(c2ccc(F)cc2)CCO1` (stereo not drawn), the cell number change is -13.4%. For the same compound, the concentration at half-maximal activity (AC50) under setting [1] was 0.517 µM [falling, single point]. The concentration at half-maximal activity (AC50) under setting [2] was 0.651 µM [falling, single point].
As to `CC(=NCCN1CCCCC1)c1c(O)n(-c2ccc(Cl)cc2)c(=O)[nH]c1=O`, the cell number change was -12%. Further, under setting [1], the AC50 was 6.51 µM [rising, single point]. For the same compound, the AC50 under setting [2] was 3.66 µM [falling, single point].
As to `O=c1[nH]c(CN2CC=C(c3ccccc3)CC2)nc2cc(C(F)(F)F)ccc12`, the cell number change was -0.106%. Under setting [2], the AC50 is 3.66 µM [rising, partial curve].
As to `COc1ccc2c(c1)CC1(CN2C)C(=O)NC(=O)N(CCc2ccccc2)C1=O` (stereo not drawn), the cell number change was -36.7%. Also, the concentration at half-maximal activity (AC50) under setting [1] was 7.31 µM [falling, partial curve].
Regarding `COc1cc2c(cc1OC)-c1c(OC)c(OC)c(OC)c3ccnc(c13)C2=O`, the cell number change was found to be 8.55%. Also, the concentration at half-maximal activity (AC50) under setting [2] is 0.731 µM [rising, full curve].
As for `CN1C(=O)C(=Cc2sc(=O)n(-c3ccccc3)c2N(C)C)C(=O)N(C)C1=O`, the cell number change amounted to 6.08%. The AC50 under setting [1] is 2.31 µM [rising, partial curve].
On to `O=C(c1cc(-c2cccnc2)nc2ccccc12)N1CCC2(CC1)OCCO2`, for which the cell number change was found to be 5.46%. The half-maximal activity concentration (AC50) under setting [2] is 0.82 µM [falling, full curve].
With `C=CCn1c(O)c(C(CC)=Nc2ccc(C(=O)O)cc2)c(=O)[nH]c1=O`, the cell number change stood at 13.9%. Moreover, the AC50 under setting [2] is 32.6 µM [rising, single point].
As for `Nc1ccc2c(c1)Cc1ccccc1-2`, the cell number change is -13.3%. Moreover, under setting [2], the AC50 is 1.3 µM [falling, full curve, poor fit].
Regarding `Cc1ccccc1N1C(=O)CC(=O)NC1=O`, the cell number change was found to be 11.3%. The half-maximal activity concentration (AC50) under setting [2] is 18.4 µM [rising, single point].
`CN(C)CC1Oc2ccccc2OC1(O)c1ccccc1` (stereo not drawn): the cell number change was -58.2%. For the same compound, the AC50 under setting [1] was 4.61 µM [falling, full curve].
Take `COc1ccc(CN2C(=O)NC(=O)/C(=C\c3ccco3)C2=O)cc1`: the half-maximal activity concentration (AC50) under setting [2] was 3.66 µM [falling, single point].
Consider `Nc1ccc(Cl)cc1C(=O)c1ccccc1Cl`, for which the cell number change is -34.2%. Also, under setting [1], the concentration at half-maximal activity (AC50) is 14.6 µM [falling, single point].
On to `Cc1csc(NC(=O)C2CCCN(S(=O)(=O)c3ccc4c(c3)oc(=O)n4C)C2)n1` (stereo not drawn), for which the AC50 under setting [1] is 0.164 µM [falling, full curve, poor fit].
In the case of `C#CCOCOCC#CCN(CC)CC`, the cell number change was -12.3%. In addition, under setting [1], the half-maximal activity concentration (AC50) is 6.51 µM [falling, single point]. Besides, under setting [2], the AC50 was 6.51 µM [falling, single point].
Consider `CC(=O)O[C@H]1C(=O)[C@@]2(C)C([C@H](OC(=O)c3ccccc3)[C@]3(O)C[C@H](OC(=O)[C@H](O)[C@@H](NC(=O)Cc4ccccc4)c4ccccc4)C(C)=C1C3(C)C)[C@]1(OC(C)=O)CO[C@@H]1C[C@@H]2O` (stereo partly drawn), for which the cell number change was -18.1%. Moreover, the AC50 under setting [2] is 14.6 µM [falling, single point].
As to `O=C(Nc1cccc(Cl)c1)c1c(O)c2c(n(Cc3ccccc3)c1=O)CCCC2`, the cell number change was 6.34%. In addition, the AC50 under setting [2] is 2.06 µM [rising, partial curve].
For the compound `Cc1cccc(C(=O)Nc2ccc3c(c2)CC2(C(=O)N(C)C(=O)N(C)C2=O)C2CCCN32)c1` (stereo not drawn), the cell number change is -20.1%. The half-maximal activity concentration (AC50) under setting [2] is 6.51 µM [rising, single point].
As for `CC/C(=N\NC(N)=O)c1c(O)[nH]c(=O)[nH]c1=O`, the cell number change turned out to be 8.97%.
As for `CC(C)CC(=O)Nc1ccc(S(=O)(=O)N2CC3CC(C2)c2cccc(=O)n2C3)cc1` (stereo not drawn), the cell number change is -2.09%.
For the compound `COCCCN1Cc2ccccc2C1=N`, the cell number change was 120%. The half-maximal activity concentration (AC50) under setting [1] is 29.1 µM [rising, partial curve]. In addition, the AC50 under setting [2] is 0.366 µM [rising, partial curve, poor fit].
With `Cc1nn(C2CCOC(C)(C)C2)c2c1C(c1ccc(OC(C)C)cc1)SCC(=O)N2` (stereo not drawn), the cell number change turned out to be 9.51%. The half-maximal activity concentration (AC50) under setting [1] was 0.116 µM [rising, full curve, poor fit]. Besides, the AC50 under setting [2] is 0.116 µM [rising, full curve, poor fit].
Regarding `N#CC(C#N)=Cc1ccc(-c2ccccc2F)o1`, the cell number change was found to be 6.59%. Further, under setting [1], the AC50 was 0.291 µM [falling, single point].
Consider `O=C1NC(=O)N(CCNc2ncc(C(F)(F)F)cc2Cl)C(=O)C1Cc1ccc(Cl)cc1` (stereo not drawn), for which the cell number change stood at 36%. The AC50 under setting [1] is 29.1 µM [rising, single point].
Take `c1ccc(NC2=NCCCS2)cc1`: the AC50 under setting [1] is 4.11 µM [falling, single point].
`O=C(NCC(c1cccnc1)N1CCN(c2ccccc2F)CC1)Oc1ccccc1` (stereo not drawn): the cell number change is 185%. Also, under setting [1], the concentration at half-maximal activity (AC50) is 8.2 µM [rising, partial curve].
As for `Nc1ccc(N=Nc2ccccc2)cc1`, the cell number change turned out to be 15.5%. Moreover, under setting [1], the AC50 was 0.82 µM [rising, single point]. Further, the AC50 under setting [2] is 4.61 µM [rising, full curve].
For `O=CNc1ccc(OP(=O)(Oc2ccccc2)Oc2ccccc2)cc1`, the cell number change was determined as 6.85%. The AC50 under setting [2] is 3.66 µM [rising, partial curve, poor fit].
In the case of `CCCCn1c(O)c(C(C)=NC(C)c2ccccc2)c(=O)[nH]c1=O` (stereo not drawn), the cell number change was -1.33%. Further, the concentration at half-maximal activity (AC50) under setting [2] is 23.1 µM [rising, partial curve].
On to `Cc1cccc(C)c1NC(=O)c1cccn(Cc2ccc3c(c2)OC(F)(F)O3)c1=O`, for which the cell number change is -71.7%. Moreover, under setting [1], the AC50 was 20.6 µM [falling, single point]. Further, the AC50 under setting [2] was 20.6 µM [falling, single point].
For the compound `CCn1c(P(C)(=O)O)nc2cc(NC(=O)c3ccccc3F)ccc21`, the cell number change is -32.9%. The AC50 under setting [1] is 2.91 µM [rising, single point].
Regarding `CN(CC(=O)Nc1ccccc1-c1ccccc1)C1CCCCC1`, the cell number change is -44.5%. Moreover, under setting [1], the AC50 was 20.6 µM [falling, single point]. Also, the AC50 under setting [2] was 18.4 µM [falling, single point].
Turning to `CC1CN(O)C2CCc3nonc3C12O` (stereo not drawn), the cell number change is 10.8%.
On to `CN1CCN(Cc2ccccc2Sc2ccccc2)CC1`, for which, under setting [2], the AC50 was 0.0259 µM [falling, full curve, poor fit].
For the compound `CCOC(=O)C1=Nc2ccccc2/C1=C\c1c(O)n(C)c(=O)n(C)c1=O`, the cell number change is 7.84%.
`CCCc1cc(=O)oc2cc(OCC(=O)N3CCN(Cc4ccc5c(c4)OCO5)CC3)ccc12`: the cell number change is -7.37%. For the same compound, the AC50 under setting [2] was 6.51 µM [rising, single point].
`C[C@H]1CCC/C=C/C2C[C@H](O)CC2[C@H](O)/C=C/C(=O)O1` (stereo partly drawn): the cell number change is -19.5%. Besides, the concentration at half-maximal activity (AC50) under setting [2] is 4.61 µM [falling, partial curve, poor fit].
For the compound `CCCCN1C(=N)C(CC)(CC)C(=O)NC1=O`, the cell number change was -62.2%. Moreover, the AC50 under setting [1] is 18.4 µM [falling, single point]. Moreover, the concentration at half-maximal activity (AC50) under setting [2] is 20.6 µM [falling, single point].
`CN1CCN(CC#CCOc2ccc(Cl)cc2)CC1`: the cell number change is 18.5%.
Take `C=CCn1c(O)c(C(C)=NCCc2ccccc2)c(=O)[nH]c1=O`: the cell number change is 6.59%. For the same compound, the AC50 under setting [1] is 6.51 µM [rising, single point].
As to `N/C(=N\[N+](=O)[O-])N1CCN(C(=O)OC2CCCC2)CC1`, the cell number change is -14.4%.
`Cc1cc(C)[n+](C2C3CC4CC(C3)CC2C4)o1` (stereo not drawn): the cell number change is -61.5%. The concentration at half-maximal activity (AC50) under setting [1] is 18.4 µM [falling, single point]. Besides, under setting [2], the half-maximal activity concentration (AC50) is 20.6 µM [falling, single point].
In the case of `COC(=O)C1=C(c2ccc(F)cc2OCc2ccccc2)C[C@@H]2CC[C@H]1N2C(=O)NCc1ccc(C)cc1`, the cell number change was -5.16%. For the same compound, the concentration at half-maximal activity (AC50) under setting [2] is 6.51 µM [falling, partial curve, poor fit].
In the case of `COc1ccc(NC(=O)N2C[C@@H]3C[C@@H](C2)c2cccc(=O)n2C3)cc1`, the cell number change was -16.1%. Further, the AC50 under setting [2] is 1.3 µM [falling, full curve, poor fit].

As a reminder, the AC50 is the concentration at which the activity in the assay is half-maximal. High values mean weaker potency, low ones greater potency.
